{"source": "the supplement of paper PMC3353916", "test_system": "Sindbis virus TE/5'2J-GFP", "experiment": "percent infected (GFP+ in RFP+ ISG-expressing cells); higher = more infection (less antiviral activity)", "conditions": "experiment: primary screen (single well)", "note": "Single values of this set are uncertain."}
{"substance": "MVVDFWTWEQTFQELIQEAKPRATWTLKLDGNLQLDCLAQGWKQYQQRAFGWFRCSSCQRSWASAQVQILCHTYWEHWTSQGQVRMRLFGQRCQKCSWSQYEMPEFSSDSTMRILSNLVQHILKKYYGNGTRKSPEMPVILEVSLEGSHDTANCEACTLGICGQGLKSCMTKPSKSLLPHLKTGNSSPGIGAVYLANQAKNQSAEAKEAKGSGYEKLGPSRDPDPLNICVFILLLVFIVVKCFTSE [RTP4]", "values": [{"measurement": "percent infected", "setting": "BHK/HA-Zeo (control)", "result": 98.3, "unit": "%"}, {"measurement": "percent infected", "setting": "BHK/NZAP-Zeo (ZAP)", "result": 95.6, "unit": "%"}]}
{"substance": "MVVSEVDIAKADPAAASHPLLLNGDATVAQKNPGSVAENNLCSQYEEKVRPCIDLIDSLRALGVEQDLALPAIAVIGDQSSGKSSVLEALSGVALPRGSGIVTRCPLVLKLKKLVNEDKWRGKVSYQDYEIEISDASEVEKEINKAQNAIAGEGMGISHELITLEISSRDVPDLTLIDLPGITRVAVGNQPADIGYKIKTLIKKYIQRQETISLVVVPSNVDIATTEALSMAQEVDPEGDRTIGILTKPDLVDKGTEDKVVDVVRNLVFHLKKGYMIVKCRGQQEIQDQLSLSEALQREKIFFENHPYFRDLLEEGKATVPCLAEKLTSELITHICKSLPLLENQIKETHQRITEELQKYGVDIPEDENEKMFFLIDKVNAFNQDITALMQGEETVGEEDIRLFTRLRHEFHKWSTIIENNFQEGHKILSRKIQKFENQYRGRELPGFVNYRTFETIVKQQIKALEEPAVDMLHTVTDMVRLAFTDVSIKNFEEFFNLHRTAKSKIEDIRAEQEREGEKLIRLHFQMEQIVYCQDQVYRGALQKVREKELEEEKKKKSWDFGAFQSSSATDSSMEEIFQHLMAYHQEASKRISSHIPLIIQFFMLQTYGQQLQKAMLQLLQDKDTYSWLLKERSDTSDKRKFLKERLARLTQARRRLAQFPG [MX1]", "values": [{"measurement": "percent infected", "setting": "BHK/HA-Zeo (control)", "result": 96.6, "unit": "%"}, {"measurement": "percent infected", "setting": "BHK/NZAP-Zeo (ZAP)", "result": 90.6, "unit": "%"}]}
{"substance": "MVWKVAVFLSVALGIGAVPIDDPEDGGKHWVVIVAGSNGWYNYRHQADACHAYQIIHRNGIPDEQIVVMMYDDIAYSEDNPTPGIVINRPNGTDVYQGVPKDYTGEDVTPQNFLAVLRGDAEAVKGIGSGKVLKSGPQDHVFIYFTDHGSTGILVFPNEDLHVKDLNETIHYMYKHKMYRKMVFYIEACESGSMMNHLPDNINVYATTAANPRESSYACYYDEKRSTYLGDWYSVNWMEDSDVEDLTKETLHKQYHLVKSHTNTSHVMQYGNKTISTMKVMQFQGMKRKASSPVPLPPVTHLDLTPSPDVPLTIMKRKLMNTNDLEESRQLTEEIQRHLDARHLIEKSVRKIVSLLAASEAEVEQLLSERAPLTGHSCYPEALLHFRTHCFNWHSPTYEYALRHLYVLVNLCEKPYPLHRIKLSMDHVCLGHY [LGMN]", "values": [{"measurement": "percent infected", "setting": "BHK/HA-Zeo (control)", "result": 87.4, "unit": "%"}, {"measurement": "percent infected", "setting": "BHK/NZAP-Zeo (ZAP)", "result": 92.2, "unit": "%"}]}
{"substance": "MWCIVLFSLLAWVYAEPTMYGEILSPNYPQAYPSEVEKSWDIEVPEGYGIHLYFTHLDIELSENCAYDSVQIISGDTEEGRLCGQRSSNNPHSPIVEEFQVPYNKLQVIFKSDFSNEERFTGFAAYYVATDINECTDFVDVPCSHFCNNFIGGYFCSCPPEYFLHDDMKNCGVNCSGDVFTALIGEIASPNYPKPYPENSRCEYQIRLEKGFQVVVTLRREDFDVEAADSAGNCLDSLVFVAGDRQFGPYCGHGFPGPLNIETKSNALDIIFQTDLTGQKKGWKLRYHGDPMPCPKEDTPNSVWEPAKAKYVFRDVVQITCLDGFEVVEGRVGATSFYSTCQSNGKWSNSKLKCQPVDCGIPESIENGKVEDPESTLFGSVIRYTCEEPYYYMENGGGGEYHCAGNGSWVNEVLGPELPKCVPVCGVPREPFEEKQRIIGGSDADIKNFPWQVFFDNPWAGGALINEYWVLTAAHVVEGNREPTMYVGSTSVQTSRLAKSKMLTPEHVFIHPGWKLLEVPEGRTNFDNDIALVRLKDPVKMGPTVSPICLPGTSSDYNLMDGDLGLISGWGRTEKRDRAVRLKAARLPVAPLRKCKEVKVEKPTADAEAYVFTPNMICAGGEKGMDSCKGDSGGAFAVQDPNDKTKFYAAGLVSWGPQCGTYGLYTRVKNYVDWIMKTMQENSTPRED [C1S]", "values": [{"measurement": "percent infected", "setting": "BHK/HA-Zeo (control)", "result": 98.4, "unit": "%"}, {"measurement": "percent infected", "setting": "BHK/NZAP-Zeo (ZAP)", "result": 96.7, "unit": "%"}]}
{"substance": "MWTFLGIATFTYFYKKFGDFITLANREVLLCVLVFLSLGLVLSYRCRHRNGGLLGRQQSGSQFALFSDILSGLPFIGFFWAKSPPESENKEQLEARRRRKGTNISETSLIGTAACTSTSSQNDPEVIIVGAGVLGSALAAVLSRDGRKVTVIERDLKEPDRIVGEFLQPGGYHVLKDLGLGDTVEGLDAQVVNGYMIHDQESKSEVQIPYPLSENNQVQSGRAFHHGRFIMSLRKAAMAEPNAKFIEGVVLQLLEEDDVVMGVQYKDKETGDIKELHAPLTVVADGLFSKFRKSLVSNKVSVSSHFVGFLMKNAPQFKANHAELILANPSPVLIYQISSSETRVLVDIRGEMPRNLREYMVEKIYPQIPDHLKEPFLEATDNSHLRSMPASFLPPSSVKKRGVLLLGDAYNMRHPLTGGGMTVAFKDIKLWRKLLKGIPDLYDDAAIFEAKKSFYWARKTSHSFVVNILAQALYELFSATDDSLHQLRKACFLYFKLGGECVAGPVGLLSVLSPNPLVLIGHFFAVAIYAVYFCFKSEPWITKPRALLSSGAVLYKACSVIFPLIYSEMKYMVH [SQLE]", "values": [{"measurement": "percent infected", "setting": "BHK/HA-Zeo (control)", "result": 98, "unit": "%"}, {"measurement": "percent infected", "setting": "BHK/NZAP-Zeo (ZAP)", "result": 89.9, "unit": "%"}]}
{"substance": "MYFCWGADSRELQRRRTAGSPGAELLQAASGERHSLLLLTNHRVLSCGDNSRGQLGRRGAQRGELPEPIQALETLIVDLVSCGKEHSLAVCHKGRVFAWGAGSEGQLGIGEFKEISFTPKKIMTLNDIKIIQVSCGHYHSLALSKDSQVFSWGKNSHGQLGLGKEFPSQASPQRVRSLEGIPLAQVAAGGAHSFALSLCGTSFGWGSNSAGQLALSGRNVPVQSNKPLSVGALKNLGVVYISCGDAHTAVLTQDGKVFTFGDNRSGQLGYSPTPEKRGPQLVERIDGLVSQIDCGSYHTLAYVHTTGQVVSFGHGPSDTSKPTHPEALTENFDISCLISAEDFVDVQVKHIFAGTYANFVTTHQDTSSTRAPGKTLPEISRISQSMAEKWIAVKRRSTEHEMAKSEIRMIFSSPACLTASFLKKRGTGETTSIDVDLEMARDTFKKLTKKEWISSMITTCLEDDLLRALPCHSPHQEALSVFLLLPECPVMHDSKNWKNLVVPFAKAVCEMSKQSLQVLKKCWAFLQESSLNPLIQMLKAAIISQLLHQTKTEQDHCNVKALLGMMKELHKVNKANCRLPENTFNINELSNLLNFYIDRGRQLFRDNHLIPAETPSPVIFSDFPFIFNSLSKIKLLQADSHIKMQMSEKKAYMLMHETILQKKDEFPPSPRFILRVRRSRLVKDALRQLSQAEATDFCKVLVVEFINEICPESGGVSSEFFHCMFEEMTKPEYGMFMYPEMGSCMWFPAKPKPEKKRYFLFGMLCGLSLFNLNVANLPFPLALYKKLLDQKPSLEDLKELSPRLGKSLQEVLDDAADDIGDALCIRFSIHWDQNDVDLIPNGISIPVDQTNKRDYVSKYIDYIFNVSVKAVYEEFQRGFYRVCEKEILRHFYPEELMTAIIGNTDYDWKQFEQNSKYEQGYQKSHPTIQLFWKAFHKLTLDEKKKFLFFLTGRDRLHARGIQKMEIVFRCPETFSERDHPTSITCHNILSLPKYSTMERMEEALQVAINNNRGFVSPMLTQS [HERC6]", "values": [{"measurement": "percent infected", "setting": "BHK/HA-Zeo (control)", "result": 99, "unit": "%"}, {"measurement": "percent infected", "setting": "BHK/NZAP-Zeo (ZAP)", "result": 96.7, "unit": "%"}]}
{"substance": "NCOA3", "values": [{"measurement": "percent infected", "setting": "BHK/HA-Zeo (control)", "result": 98.3, "unit": "%"}, {"measurement": "percent infected", "setting": "BHK/NZAP-Zeo (ZAP)", "result": 92, "unit": "%"}]}
{"substance": "PCTK2", "values": [{"measurement": "percent infected", "setting": "BHK/HA-Zeo (control)", "result": 96.8, "unit": "%"}, {"measurement": "percent infected", "setting": "BHK/NZAP-Zeo (ZAP)", "result": 80.1, "unit": "%"}]}
{"substance": "PDK1", "values": [{"measurement": "percent infected", "setting": "BHK/HA-Zeo (control)", "result": 95.9, "unit": "%"}, {"measurement": "percent infected", "setting": "BHK/NZAP-Zeo (ZAP)", "result": 83.5, "unit": "%"}]}
{"substance": "PIM3", "values": [{"measurement": "percent infected", "setting": "BHK/HA-Zeo (control)", "result": 98.2, "unit": "%"}, {"measurement": "percent infected", "setting": "BHK/NZAP-Zeo (ZAP)", "result": 97.1, "unit": "%"}]}
{"substance": "PNRC1", "values": [{"measurement": "percent infected", "setting": "BHK/HA-Zeo (control)", "result": 97.2, "unit": "%"}, {"measurement": "percent infected", "setting": "BHK/NZAP-Zeo (ZAP)", "result": 91.9, "unit": "%"}]}
{"substance": "PRIC285", "values": [{"measurement": "percent infected", "setting": "BHK/HA-Zeo (control)", "result": 95.9, "unit": "%"}, {"measurement": "percent infected", "setting": "BHK/NZAP-Zeo (ZAP)", "result": 83.7, "unit": "%"}]}
{"substance": "STAT2", "values": [{"measurement": "percent infected", "setting": "BHK/HA-Zeo (control)", "result": 98.5, "unit": "%"}, {"measurement": "percent infected", "setting": "BHK/NZAP-Zeo (ZAP)", "result": 96.8, "unit": "%"}]}
{"substance": "TIMP1", "values": [{"measurement": "percent infected", "setting": "BHK/HA-Zeo (control)", "result": 90.1, "unit": "%"}, {"measurement": "percent infected", "setting": "BHK/NZAP-Zeo (ZAP)", "result": 81.8, "unit": "%"}]}
{"substance": "UBE2L6", "values": [{"measurement": "percent infected", "setting": "BHK/HA-Zeo (control)", "result": 93.9, "unit": "%"}, {"measurement": "percent infected", "setting": "BHK/NZAP-Zeo (ZAP)", "result": 80.3, "unit": "%"}]}
